Source: PubChem BioAssay AID2685 (National Center for Advancing Translational Sciences (NCATS), 2010)
Screen size: about 320,000 compounds; about 2,100 (0.66%) were called active. Inconclusive means that the source gave no clear call. Such entries were picked first, then a sample of the others. The call rests on the fitted dose curve; in most records, active means well fitted inhibition curve with a large enough effect in the signal ratio, with a control signal flat (not every such curve was filed as active); inconclusive means small, poorly fitted or top-dose-only effect, or effect the other way, or a change in a side signal; inactive means flat fitted curve, though single readings scatter; the % refers to the signal ratio. Potencies beside an inconclusive call are fits to weak or partial responses and may not hold up.
On the % scale 0 is the no-effect control and ±100 the full control effect; potency means the concentration at half of the fitted maximal effect.

Assay: qHTS Assay for Lipid Storage Modulators in Drosophila S3 Cells
Details: BODIPY lipid droplet fluorescence, 18-24 h, cells fed with added oleic acid; lipid storage change, negative = inhibition: at 46.1 µM (top of the series) unless noted
Procedure, shortened: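 Laser-scanning cytometry quantifies lipid droplet accumulation (500–530 nm total intensity; droplet/cell object ratio) in oleic acid-fed (400 uM added) Drosophila S3 cells treated with a concentration series. 20 uM Triacsin C defined 100% inhibition.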
With `COc1cccc(-n2c(SCC(=O)NCCc3ccccc3)nnc2-c2ccoc2C)c1` the Potency was inconclusive: 6.51 µM [rising, single point].
For `CCCCCCCCNC(=O)c1cccnc1SCC(=O)Nc1ccc(OC)cc1OC`, the Potency was active: 20.6 µM.
With `O=C(Nc1ccc(F)cc1F)Nc1csc2ccccc12` the lipid storage change, negative = inhibition was inconclusive: -26.9%.
With `Cc1ccc2nc(CSc3nc(C)ccc3C#N)[nH]c2c1` the Potency was inconclusive: 0.259 µM [rising, full curve].
With `O=C(CNS(=O)(=O)c1ccccc1)NCc1cccnc1` the lipid storage change, negative = inhibition was inconclusive: 27.1%.
In the case of `Cc1cccc(C)c1NC(=O)CCCN1C(=O)C(c2ccccc2)Oc2cccnc21` (stereo unspecified), the lipid storage change, negative = inhibition is reported as inconclusive: -15.8%.
In the case of `Cc1ccc(S(=O)(=O)N2CCCCC2)cc1NC(=O)c1cccs1`, the Potency is reported as inconclusive: 0.82 µM [activator, single point].
With `COc1ccc(-c2nnc(SCC(=O)N3CCCCC3)o2)c(OC)c1` the Potency was inconclusive: 2.59 µM [activator, partial curve].
With `CCC(=O)c1ccc(OCC(=O)Nc2cccc(S(=O)(=O)N(C)c3ccccc3)c2)cc1` the lipid storage change, negative = inhibition was inconclusive: 27.7%.
In the case of `O=C(COc1ccc([N+](=O)[O-])cc1)Nc1ccc(N2CCCC2)cc1`, the Potency is reported as inconclusive: 16.4 µM [activator, partial curve, poor fit].
With `COc1ccccc1C(=O)O[C@H]1[C@H](Cc2ccccc2)NS(=O)(=O)[C@H]2C[C@@H]3C=C[C@]12O3` the lipid storage change, negative = inhibition was inconclusive: -81.9%.
For `CSc1ncccc1C(=O)OCC(=O)Nc1ccc2c(c1)CCC2`, the Potency was inconclusive: 0.0041 µM [falling, full curve, poor fit].
For `CCC(C)(C)NC(=O)COc1ccc(C(=O)c2ccccc2)cc1`, the lipid storage change, negative = inhibition was inconclusive: 12.6%.
With `CS(=O)(=O)Cc1ccc(C(=O)NC2CCN(Cc3ccccc3)C2)cc1` (stereo unspecified) the lipid storage change, negative = inhibition was inconclusive: -110%.
With `O=C(O)CCCN1C(=O)NC2NC(=O)NC21` (stereo unspecified) the lipid storage change, negative = inhibition was inconclusive: -1.61%.
With `CCC(=O)NNC(=S)NC(=O)c1ccc(C)cc1` the lipid storage change, negative = inhibition was inconclusive: 1.62%.
With `CN1CCN(Cc2nc3ccccc3c(=O)n2CC#N)CC1` the Potency was inconclusive: 0.651 µM [falling, full curve].
With `NC(=O)CSc1nnc(NC(=O)c2ccc(S(=O)(=O)N3CCCCC3)cc2)s1` the lipid storage change, negative = inhibition was “inconclusive”.
With `CC(C)CCNC(=O)C(c1ccco1)N(Cc1cccs1)C(=O)Cn1nnc2ccccc21` (stereo unspecified) the lipid storage change, negative = inhibition was inconclusive: 21.3%.
For `Cc1nc2cc(F)ccc2n1C1CCN(C(=O)c2c(F)cccc2F)CC1`, the Potency was inconclusive: 29.1 µM [falling, single point].
With `COc1ccc(CN2CC(=O)N(c3cc(Cl)ccc3OC)C2=S)cc1OC` the lipid storage change, negative = inhibition was inconclusive: -34.4%.
For `COc1cc(OC)c(OC)cc1C#N`, the Potency was inconclusive: 0.0046 µM [falling, full curve, poor fit].
In the case of `Cc1cc(S(=O)(=O)N2CCC(N3CCCCC3)CC2)ccc1-n1cnnn1`, the lipid storage change, negative = inhibition is reported as inconclusive: 16.4%.
For `O=C(c1cc(S(=O)(=O)N2CCN(c3ccccc3)CC2)ccc1Cl)N1CCCC(C(F)(F)F)C1` (stereo unspecified), the lipid storage change, negative = inhibition was inconclusive: -8.99%.
With `Cc1ccc(NC(=O)c2cc3ccccc3cc2O)cc1` the Potency was inconclusive: 29.1 µM [falling, single point].
For `CC12COC3(C(=O)Nc4ccc(Cl)cn4)CC1CCC32C` (stereo unspecified), the Potency was inconclusive: 9.2 µM [rising, partial curve].
In the case of `Cc1ccccc1OCCC(=O)OCC(=O)Nc1cc(S(=O)(=O)N2CCOCC2)ccc1Cl`, the lipid storage change, negative = inhibition is reported as inconclusive: 4.34%.
With `O=C(OCc1nc2ccccc2[nH]1)C1CCCCC1` the lipid storage change, negative = inhibition was inconclusive: -6.3%.
In the case of `Oc1c(CNc2ccccc2)cc(COCc2ccccc2)c2cccnc12`, the lipid storage change, negative = inhibition is reported as inconclusive: -28.3%.
For `CCOC(=O)N1CCN(C(=O)CSc2nnc(-c3cccs3)o2)CC1`, the Potency was inconclusive: 0.0041 µM [activator, full curve, poor fit].
In the case of `CC(=O)Nc1ccc(OCc2ccc(S(=O)(=O)Cc3ccccc3)cc2)cc1`, the lipid storage change, negative = inhibition is reported as inconclusive: -14%.
In the case of `COc1ccc(NC(=O)c2cccnc2Sc2ccccc2)c(OC)c1`, the lipid storage change, negative = inhibition is reported as inconclusive: -16.8%.
For `CCCCCc1nc(N)c(C#N)c(-c2ccco2)c1CCCC`, the Potency was inconclusive: 7.31 µM [activator, partial curve].
For `c1ccc(OCCCCN2CCCCC2)cc1`, the Potency was inconclusive: 7.31 µM [activator, partial curve].
For `CCSc1nnc(-c2sc3nnc(-c4ccccc4)c(-c4ccccc4)c3c2N)o1`, the Potency was inconclusive: 3.66 µM [falling, full curve].
In the case of `COc1ccc(-c2cc3ccccc3cn2)cc1`, the Potency is reported as inconclusive: 1.16 µM [activator, partial curve].
For `C/C(=C\C(=S)Nc1ccccc1)Nc1ccccc1`, the “lipid storage change, negative = inhibition” value was inactive: 0.0435%.
With `COc1ccc(C2=NOC(Cn3nc(C(=O)NCc4cccc(C(F)(F)F)c4)cc3-c3ccccc3)C2)cc1` (stereo unspecified) the lipid storage change, negative = inhibition was inconclusive: -7.1%.
For `CN(C(=O)COC(=O)c1cccnc1Nc1ccccc1F)C1CCS(=O)(=O)C1` (stereo unspecified), the lipid storage change, negative = inhibition was inconclusive: -21.6%.
For `CCOC(=O)C(C)Sc1nnc(-c2ccccc2O)n1-c1ccc(C)cc1` (stereo unspecified), the lipid storage change, negative = inhibition was inconclusive: 18.1%.
For `c1ccc(CN2CCN(C3=Nc4cccc5cccc3c45)CC2)cc1`, the Potency was inconclusive: 29.1 µM [rising, single point].
For `COCCNC(=O)COc1ccc(N(C)S(=O)(=O)c2ccc3ccccc3c2)cc1`, the lipid storage change, negative = inhibition was inconclusive: 15.1%.
In the case of `COc1ccc(CC(=O)OCC(=O)N2N=C(c3ccccc3)CC2c2ccc(OC)cc2)cc1` (stereo unspecified), the “lipid storage change, negative = inhibition” value is reported as inactive: 6.9%.
With `CCC(CC)NC(=O)COC(=O)CCC(=O)c1ccc(Cl)cc1` the lipid storage change, negative = inhibition was inconclusive: -19.9%.
In the case of `CCOC(=O)C1=C(O)/C(=C/c2ccc(OCC(=O)O)c(OCC)c2)SC1=Nc1ccc(OC)cc1`, the Potency is reported as inconclusive: 2.06 µM [falling, partial curve, poor fit].
For `Cc1ccc(/C(N)=N/OC(=O)c2cccc(Cn3cc(C(F)(F)F)ccc3=O)c2)cc1`, the lipid storage change, negative = inhibition was inconclusive: -18.9%.
For `Cc1cc(N/N=C/c2ccc(Cl)cc2Cl)nc(NCc2ccccc2)n1`, the Potency was inconclusive: 16.4 µM [falling, single point].
For `Cc1ccc(OCCC(=O)N(CCC(C)C)c2c(N)n(Cc3ccccc3)c(=O)[nH]c2=O)cc1`, the lipid storage change, negative = inhibition was “inconclusive”.
In the case of `COc1ccc(-c2nn(-c3ccccc3)cc2C2CC(c3cccs3)=NN2C(=O)CCC(=O)O)cc1` (stereo unspecified), the lipid storage change, negative = inhibition is reported as inconclusive: -18.4%.
In the case of `O=C(CN1CCN(S(=O)(=O)N2CCCCCC2)CC1)Nc1cc(Cl)ccc1Cl`, the lipid storage change, negative = inhibition is reported as inconclusive: -139%.
For `O=C(Nc1cc(Cl)ccc1-n1cncn1)c1ccccc1OC(F)F`, the lipid storage change, negative = inhibition was “inconclusive”.
In the case of `O=C(c1cccc(Oc2ccccc2)c1)N1CCOCC1`, the lipid storage change, negative = inhibition is reported as inconclusive: 8.88%.
In the case of `COCCNC(=O)c1ccccc1NC(=O)c1ccccc1N(C)S(=O)(=O)c1ccccc1`, the lipid storage change, negative = inhibition is reported as inconclusive: 47.3%.
With `CCOc1ccc(N(CC(=O)NCCc2ccccc2)C(=O)CCC(=O)Nc2cc(C)ccn2)cc1` the lipid storage change, negative = inhibition was inconclusive: 12.4%.
With `COc1ccc(CCN2CC(C(=O)Nc3cccc(C(C)=O)c3)CC2=O)cc1OC` (stereo unspecified) the Potency was inconclusive: 0.0731 µM [falling, full curve, poor fit].
With `Cc1cc(C)nc(SCc2ccc(C(=O)N/N=C/c3cccc(O)c3O)cc2)n1` the Potency was inconclusive: 18.4 µM [falling, single point].
With `NC(=O)c1ccc(-c2csnn2)cc1` the lipid storage change, negative = inhibition was inconclusive: 23%.
For `CN(Cc1ccco1)C(=O)CN1C(=O)NC2(CCCCC2)C1=O`, the Potency was inconclusive: 0.0058 µM [activator, full curve, poor fit].
With `COc1ccc(NC(=O)c2ccccc2-c2ccc(C(F)(F)F)cc2)cc1S(=O)(=O)N1CCOCC1` the lipid storage change, negative = inhibition was inconclusive: 21.8%.
In the case of `O=C(NCc1cccnc1)/C(=C/c1ccc(-c2cccc(Cl)c2)o1)S(=O)(=O)c1ccccc1`, the lipid storage change, negative = inhibition is reported as inconclusive: -16.8%.
For `Cc1ccc2nc(CCc3ccc(N)cc3)[nH]c2c1`, the lipid storage change, negative = inhibition was inconclusive: 26.6%.
With `O=C(COC(=O)c1ccc(CO)cc1)Nc1ccc(OC(F)F)cc1` the lipid storage change, negative = inhibition was inconclusive: 5.42%.
In the case of `C=CCn1c(SCc2c(C)noc2C)nc2cc(C(=O)O)ccc2c1=O`, the Potency is reported as inconclusive: 0.651 µM [activator, full curve, poor fit].
For `O=[N+]([O-])c1ccc(N2CCN(S(=O)(=O)c3ccccc3)CC2)cc1N1CCc2ccccc2C1`, the lipid storage change, negative = inhibition was inconclusive: 15%.
With `CCOCCn1c(N2CCCC2)nc2c1c(=O)n(C)c(=O)n2C` the “outcome” value was “inactive [at 46.1 µM]”.
With `COc1ccc(NC(=S)NC23CC4CC(CC(C4)C2)C3)cc1OC` the lipid storage change, negative = inhibition was inconclusive: 18.1%.
For `CCc1ccc(CN2CCCC(C(=O)Nc3ccc(-c4cscn4)cc3)C2)o1` (stereo unspecified), the Potency was inconclusive: 1.3 µM [activator, single point].
For `Nc1nnc(N)c2ccccc12`, the lipid storage change, negative = inhibition was inconclusive: 26.1%.
With `CCn1nnc2cc(C(=O)Nc3cc(Cl)ccc3C)ccc21` the lipid storage change, negative = inhibition was inconclusive: 13%.
In the case of `CC(=O)/C(N=Nc1nc2c([nH]1)c(=O)n(C)c(=O)n2C)=C(\C)O`, the lipid storage change, negative = inhibition is reported as inconclusive: -48.3%.
In the case of `Cc1cccc(N2CCN(C(=O)C3CCN(S(=O)(=O)N4CCOCC4)CC3)CC2C)c1` (stereo unspecified), the lipid storage change, negative = inhibition is reported as inconclusive: -0.194%.
For `Cc1nn(-c2ccccc2)nc1CNC(=O)C(C)Cc1ccccc1` (stereo unspecified), the lipid storage change, negative = inhibition was inconclusive: -1.4%.
In the case of `CCn1c(SCC(=O)c2[nH]c(C)c(C(C)=O)c2C)nnc1-c1ccccc1`, the lipid storage change, negative = inhibition is reported as inconclusive: 23.4%.
For `Cc1ccc(S(=O)(=O)NCC(=O)NCC(=O)OC(C(=O)NC(N)=O)C(C)C)cc1C` (stereo unspecified), the lipid storage change, negative = inhibition was inconclusive: 9.39%.
For `CCOc1ccc(C(=O)COC(=O)c2ccc(-n3cnnn3)cc2)cc1`, the Potency was inconclusive: 16.4 µM [activator, single point].
For `C#CC(CC)(CC)NC(=S)Nc1cccc(C(C)=O)c1`, the lipid storage change, negative = inhibition was inconclusive: -10.8%.
